System: MOLM14
Experiment: IC50 determination (proliferation assay, CellTiter-Blue)
Assay type: cell-based
Settings: Homo sapiens, MOLM-14
Experimental: Cell lines were seeded into 96-well plates the afternoon prior to treatment. Approximately 18 hours later, compounds were diluted in dimethyl sulfoxide (DMSO) and added to cells. Plates were incubated for 72 hours and cells viability determined with CellTiter-Blue Cell Viability Assay (Promega, Madison, WI). Plates were read after 4 additional hours of incubation at 37° C. using plate reader (Bio-Tek, Winooski. VT). Data was analyzed and graphed using GraphPad Prism Software (Graphpad. La Jolla, CA).
Compounds HSN352, HSN353. […] These compounds' proliferation inhibition (IC50) against MV4-11 and MOLM-14 (FLT3-driven AML cell lines) were determined (Table 6B).

CO[C@@H]1[C@H](N(C)C(=O)c2ccccc2)C[C@H]2O[C@]1(C)n1c3ccccc3c3c4c(c5c6ccccc6n2c5c31)C(=O)NC4 [Midostaurin, midostaurin, reference compound]
IC50: 7.37 ± 0.1 nM
